Experimental data reported in the supplement of paper PMC10626197.
Structures can show the parent of a compound that is named as a salt. ± gives the standard deviation of the averaged measurements. Some well-known active drugs show little effect in this data set, so a weak value is uncertain.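 MCF7, a breast cancer cell line, was exposed to pairs of drugs across a grid of doses. Every plate had solvent-only (DMSO) wells as the untreated reference and a doxorubicin series as the total-kill control. No hit threshold is applied to these viability readings.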

System: MCF7
Assay: cell viability relative to DMSO control (raw); higher = more viable cells
Conditions: exposure time 72 h
Method: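 MCF7 cells, 1000 cells/well in 384-well plates, treated with 6x6 dose matrices of drug pairs (1:3 serial dilutions, DMSO as lowest dose) for 72 h at 37 °C. Viability read by CellTiter-Glo luminescence, 3 biological replicates. Normalised viability sets 0% at the highest doxorubicin dose and 100% at the 0,0 µM control per combination.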

C#Cc1cccc(Nc2ncnc3cc(OCCOC)c(OCCOC)cc23)c1 [Erlotinib] + CN1CCN(CCCN2c3ccccc3Sc3ccc(C(F)(F)F)cc32)CC1 [Trifluoperazine 2HCl]
cell viability [%]
Conditions | drug 2 concentration 0 µM | drug 2 concentration 0.185185 µM | drug 2 concentration 0.555556 µM | drug 2 concentration 1.66667 µM | drug 2 concentration 5 µM | drug 2 concentration 15 µM
drug 1 concentration 0.123457 µM | 96.4 ± 9.2 | 94 ± 3.5 | 94.6 ± 2.1 | 90 ± 2.7 | 83.1 ± 2 | 10.1 ± 3.5
drug 1 concentration 0.37037 µM | 91.4 ± 5.5 | 93.19 ± 0.86 | 94.9 ± 1.6 | 92.2 ± 1.9 | 79.3 ± 1.6 | 14.5 ± 3.4
drug 1 concentration 1.11111 µM | 95.9 ± 6.8 | 97.1 ± 3.6 | 102 ± 3.4 | 97.3 ± 0.99 | 81.9 ± 6.2 | 9.61 ± 0.68
drug 1 concentration 3.33333 µM | 94.7 ± 1.4 | 97.4 ± 7.3 | 92.6 ± 4.9 | 92.5 ± 2.9 | 81 ± 4.7 | 3.64 ± 0.95
drug 1 concentration 10 µM | 85.5 ± 4.5 | 83.7 ± 1.8 | 81.2 ± 5.8 | 82 ± 8.4 | 78.2 ± 5.9 | 6.28 ± 1

C#Cc1cccc(Nc2ncnc3cc(OCCOC)c(OCCOC)cc23)c1 [Erlotinib] + CN(C)CCCN1c2ccccc2CCc2ccc(Cl)cc21 [Clomipramine (hydrochloride)]
cell viability [%]
Conditions | drug 2 concentration 0 µM | drug 2 concentration 0.123457 µM | drug 2 concentration 0.37037 µM | drug 2 concentration 1.11111 µM | drug 2 concentration 3.33333 µM | drug 2 concentration 10 µM
drug 1 concentration 0.123457 µM | 105 ± 12 | 104 ± 14 | 101 ± 8.9 | 104 ± 10 | 98.9 ± 9.4 | 78.5 ± 6.4
drug 1 concentration 0.37037 µM | 120 ± 9 | 115 ± 12 | 119 ± 6.4 | 116 ± 3.5 | 112 ± 5.1 | 89.9 ± 6.6
drug 1 concentration 1.11111 µM | 102 ± 11 | 99.5 ± 12 | 100 ± 12 | 101 ± 12 | 101 ± 4.2 | 79.2 ± 4.5
drug 1 concentration 3.33333 µM | 106 ± 5.6 | 110 ± 8.6 | 105 ± 7.8 | 115 ± 10 | 105 ± 5.2 | 80.4 ± 6.4
drug 1 concentration 10 µM | 85.8 ± 9.9 | 81.3 ± 7 | 85.9 ± 16 | 90.3 ± 16 | 82.1 ± 16 | 61 ± 5.7

C#Cc1cccc(Nc2ncnc3cc(OCCOC)c(OCCOC)cc23)c1 [Erlotinib] + COc1cc2nc(N3CCN(C(=O)C4CCCO4)CC3)nc(N)c2cc1OC [Terazosin (hydrochloride dihydrate)]
cell viability [%]
Conditions | drug 2 concentration 0 µM | drug 2 concentration 0.0308642 µM | drug 2 concentration 0.0925926 µM | drug 2 concentration 0.277778 µM | drug 2 concentration 0.833333 µM | drug 2 concentration 2.5 µM
drug 1 concentration 0.123457 µM | 104 ± 20 | 99.1 ± 20 | 106 ± 16 | 104 ± 14 | 105 ± 16 | 99.2 ± 15
drug 1 concentration 0.37037 µM | 108 ± 19 | 103 ± 12 | 107 ± 16 | 103 ± 19 | 104 ± 12 | 107 ± 20
drug 1 concentration 1.11111 µM | 104 ± 10 | 106 ± 14 | 104 ± 9.9 | 104 ± 12 | 99.7 ± 8.6 | 96.2 ± 13
drug 1 concentration 3.33333 µM | 111 ± 8 | 111 ± 15 | 108 ± 20 | 108 ± 16 | 112 ± 12 | 107 ± 12
drug 1 concentration 10 µM | 87.6 ± 5.3 | 86.2 ± 13 | 100 ± 12 | 94.1 ± 7.9 | 90.3 ± 14 | 95.6 ± 17

C#Cc1cccc(Nc2ncnc3cc(OCCOC)c(OCCOC)cc23)c1 [Erlotinib] + N#CC1(c2ccc(NC(=O)c3cccnc3NCc3ccncc3)cc2)CCCC1 [Apatinib]
cell viability [%]
Conditions | drug 2 concentration 0 µM | drug 2 concentration 0.0617284 µM | drug 2 concentration 0.185185 µM | drug 2 concentration 0.555556 µM | drug 2 concentration 1.66667 µM | drug 2 concentration 5 µM
drug 1 concentration 0.123457 µM | 111 ± 12 | 105 ± 7.7 | 110 ± 3.3 | 111 ± 10 | 105 ± 5.5 | 104 ± 4.7
drug 1 concentration 0.37037 µM | 112 ± 3 | 107 ± 6.3 | 112 ± 3.9 | 115 ± 3.1 | 116 ± 4.7 | 111 ± 8.2
drug 1 concentration 1.11111 µM | 110 ± 7 | 99.1 ± 3 | 104 ± 7.7 | 105 ± 3.3 | 109 ± 7.3 | 107 ± 7.5
drug 1 concentration 3.33333 µM | 113 ± 11 | 113 ± 4.4 | 97.2 ± 7.2 | 105 ± 7 | 110 ± 5.6 | 104 ± 5.6
drug 1 concentration 10 µM | 89 ± 14 | 81.1 ± 5.8 | 91.2 ± 6.6 | 86.8 ± 8.5 | 83.9 ± 9.4 | 82.4 ± 6.1

COc1cc2ncnc(Nc3ccc(F)c(Cl)c3)c2cc1OCCCN1CCOCC1 [Gefitinib] + C=C1/C(=C\C=C2/CCC[C@]3(C)[C@@H]([C@H](C)CCCC(C)C)CC[C@@H]23)C[C@@H](O)C[C@@H]1O [Alfacalcidol]
cell viability [%]
Conditions | drug 2 concentration 0 µM | drug 2 concentration 0.617284 µM | drug 2 concentration 1.85185 µM | drug 2 concentration 5.55556 µM | drug 2 concentration 16.6667 µM | drug 2 concentration 50 µM
drug 1 concentration 0.123457 µM | 88.1 ± 4.5 | 82 ± 2.4 | 78 ± 4.2 | 77.9 ± 2.5 | 64 ± 1.2 | 0.866 ± 0.17
drug 1 concentration 0.37037 µM | 93.1 ± 2.8 | 83.4 ± 4.7 | 84.4 ± 4.2 | 79.4 ± 2.2 | 66.8 ± 4.1 | 0.546 ± 0.52
drug 1 concentration 1.11111 µM | 86.9 ± 6.1 | 83.5 ± 4.4 | 82.2 ± 3.8 | 84.6 ± 4.5 | 62.1 ± 3.5 | 0.392 ± 0.14
drug 1 concentration 3.33333 µM | 86.37 ± 0.59 | 82.4 ± 4.4 | 82 ± 4.5 | 76.3 ± 2.6 | 63.3 ± 6.7 | 0.336 ± 0.12
drug 1 concentration 10 µM | 77.1 ± 4.4 | 59.4 ± 15 | 66.2 ± 4.7 | 53.3 ± 6.3 | 41.2 ± 7.3 | 3.6 ± 1.2
